From publication PMC5059642
These are yes or no findings as the source states them, for the method shown. In cells and extracts the contact can be indirect. Sequences can lack the tags named with a protein.

By UniProt entry, the sequences of proteins in these tests, tags left out.
UniProt P11142: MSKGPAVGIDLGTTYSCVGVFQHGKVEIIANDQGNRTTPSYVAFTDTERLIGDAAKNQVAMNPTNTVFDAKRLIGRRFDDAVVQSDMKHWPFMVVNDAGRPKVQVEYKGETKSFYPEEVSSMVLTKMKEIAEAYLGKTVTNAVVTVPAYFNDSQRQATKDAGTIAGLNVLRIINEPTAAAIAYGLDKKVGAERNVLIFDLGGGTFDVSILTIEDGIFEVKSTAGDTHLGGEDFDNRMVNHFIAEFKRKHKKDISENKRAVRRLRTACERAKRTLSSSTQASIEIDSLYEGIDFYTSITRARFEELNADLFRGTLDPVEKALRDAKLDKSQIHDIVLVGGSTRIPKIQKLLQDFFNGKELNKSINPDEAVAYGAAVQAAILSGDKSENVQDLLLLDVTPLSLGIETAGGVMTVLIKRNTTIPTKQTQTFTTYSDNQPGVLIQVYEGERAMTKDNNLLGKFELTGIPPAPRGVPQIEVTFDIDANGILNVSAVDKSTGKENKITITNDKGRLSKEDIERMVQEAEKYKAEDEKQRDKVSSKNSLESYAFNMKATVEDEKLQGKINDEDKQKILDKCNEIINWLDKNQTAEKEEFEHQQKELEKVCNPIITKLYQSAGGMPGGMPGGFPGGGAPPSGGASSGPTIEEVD

Target: T1, FLAG-ARD1 (human) (UniProt P41227)
T1 sequence: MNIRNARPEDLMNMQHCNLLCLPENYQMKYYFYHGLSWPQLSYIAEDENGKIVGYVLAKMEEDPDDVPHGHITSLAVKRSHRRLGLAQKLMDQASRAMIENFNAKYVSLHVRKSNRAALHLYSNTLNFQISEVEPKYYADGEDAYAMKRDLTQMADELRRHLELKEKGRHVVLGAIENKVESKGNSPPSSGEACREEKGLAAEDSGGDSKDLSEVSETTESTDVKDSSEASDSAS
Assay: co-IP; FLAG-ARD1 precipitated from HEK293T cells; co-precipitation of Myc-Hsp70 or Myc-Hsc70 by western blotting

binding: no binding
Substance: Myc-Hsc70 (from UniProt P11142 1-646)
